In PubChem BioAssay AID200 (DTP/NCI, 2004) one finds survivor count and T/C data, which are given here for 18 molecules.

The list shows only some results of the screen, not a fair sample: it gathers tests that were run many times, whatever their T/C, doses with no T/C, and many T/C values between a quarter and a half above the control. Further doses and runs are listed elsewhere. T/C is the treated group as % of the vehicle group. Some entries give survivors of the animals treated and no T/C: the source files T/C as zero there, which appears to mark a toxic dose or a test without result, not a measured value. Some doses without a T/C left all or most animals alive at the check, yet need not have been tolerated: the source hardly ever lists a survival T/C far under the control, and the zero likely stands for such cases as well. Counts of survivors are from the toxicity check (mostly the fifth day) where no day follows; animals may have died later. Schedule codes are those of the source, read here as Q, the interval in days (D) or hours (H), X, the number of doses. Some entries hold several experiments; the results are listed from low to high. For survival time, the PubChem record calls one and a half times the control and up active, and a quarter to a half above the control has no call in these data; cut-offs in other NCI protocols can differ. Some T/C values carry the count of animals alive at the toxicity check (mostly the fifth day); without a count, all were alive then.

In this experiment the test system is B6C3F1 mice, B16 melanoma ip, median survival T/C. The experiment in a line: NCI In Vivo Anticancer Drug Screen. Data for tumor model B16 Melanoma (intraperitoneal) in B6C3F1 mice. As to conditions: T/C endpoint: median survival time, higher T/C = longer survival. In a few lines:
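Readout: survival or tumor size in treated mice relative to vehicle controls (T/C). Model uses transplantable tumors grown in mice.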

Setting [1] is: dose: 400.0 mg/kg/injection, schedule: Q01DX009 (ip), vehicle: saline with Tween-80.
The mark [2] stands for this setting: dose: 200.0 mg/kg/injection, schedule: Q01DX009 (ip), vehicle: saline.
[3] abbreviates: dose: 400.0 mg/kg/injection, schedule: Q01DX009 (ip), vehicle: saline.
[4] abbreviates: dose: 50.0 mg/kg/injection, schedule: Q01DX009 (ip), vehicle: saline with Tween-80.
[5] abbreviates: dose: 100.0 mg/kg/injection, schedule: Q01DX009 (ip), vehicle: saline with Tween-80, evaluated on day 60.
The mark [6] stands for this setting: dose: 25.0 mg/kg/injection, schedule: Q01DX009 (ip), vehicle: Klucel (hydroxypropylcellulose) (HPC).
Where [7] appears, read: dose: 50.0 mg/kg/injection, schedule: Q01DX009 (ip), vehicle: Klucel (hydroxypropylcellulose) (HPC).
Setting [8] is: dose: 25.0 mg/kg/injection, schedule: Q01DX009 (ip), vehicle: saline with Tween-80.
The mark [9] stands for this setting: dose: 100.0 mg/kg/injection, schedule: Q01DX009 (ip), vehicle: saline with Tween-80.
Where [10] appears, read: dose: 200.0 mg/kg/injection, schedule: Q01DX009 (ip), vehicle: saline with Tween-80.
[11] abbreviates: dose: 12.5 mg/kg/injection, schedule: Q01DX009 (ip), vehicle: saline.

On to `O=C(O)CCCCCCCC(=O)O`, for which the survivor count is given as 10 of 10 (dose: 200.0 mg/kg/injection, schedule: Q01DX009 (ip), vehicle: distilled water + Tween-80) and 1 of 10 (dose: 400.0 mg/kg/injection, schedule: Q01DX009 (ip), vehicle: distilled water + Tween-80).
Turning to `O=C(Nc1cccc(Cl)c1)C1CCCC1=Nc1cccc(Cl)c1` (configuration not stated), the survivor count under setting [1] was 10 of 10.
As for `COc1cccc2c1C(=O)c1c(O)c3c(c(O)c1C2=O)C[C@@](O)(C(C)=O)C[C@@H]3OC1CC(NC(=O)C(N)CC(C)C)C(O)C(C)O1` (some centres not stated), the survivor count reads like this: (dose: 25.0 mg/kg/injection, schedule: Q01DX001 (ip), vehicle: saline) 10 of 10; (dose: 50.0 mg/kg/injection, schedule: Q01DX001 (ip), vehicle: saline) 9 of 10; (dose: 100.0 mg/kg/injection, schedule: Q01DX001 (ip), vehicle: saline) 5 of 10; (dose: 200.0 mg/kg/injection, schedule: Q01DX001 (ip), vehicle: saline) 0 of 10.
With `CCOC(=O)C1=C(C#N)C2(CCC(OCc3ccccc3)CC2)C(=O)O1` (configuration not stated), the survivor count reads like this: under setting [2], 9 of 10; under setting [3], 4 of 10; (dose: 400.0 mg/kg/injection, schedule: Q01DX009 (ip), vehicle: suspension in saline) 9 of 10.
Turning to `Nc1nc(-c2ccccc2)c(Br)c(=O)[nH]1`, the T/C was 132 % of control under setting [4]; 132 % of control (dose: 100.0 mg/kg/injection, schedule: Q01DX009 (ip), vehicle: saline with Tween-80, evaluated on day 55); 155, 160, 189 % of control under setting [5]; 122 % of control (dose: 200.0 mg/kg/injection, schedule: Q01DX009 (ip), vehicle: saline with Tween-80, evaluated on day 55); 113, 168, 173 % of control (dose: 200.0 mg/kg/injection, schedule: Q01DX009 (ip), vehicle: saline with Tween-80, evaluated on day 60); 155 % of control (dose: 400.0 mg/kg/injection, schedule: Q01DX009 (ip), vehicle: saline with Tween-80, evaluated on day 55). The T/C (dose: 400.0 mg/kg/injection, schedule: Q01DX009 (ip), vehicle: saline with Tween-80, evaluated on day 60) was 143, 154, 198 % of control.
Consider `O=c1oc2c(O)c(O)cc3c(=O)oc4c(O)c(O)cc1c4c23`, for which the T/C runs as follows: (dose: 3.12 mg/kg/injection, schedule: Q01DX009 (ip), vehicle: Klucel (hydroxypropylcellulose) (HPC)) 125 % of control; (dose: 12.5 mg/kg/injection, schedule: Q01DX009 (ip), vehicle: Klucel (hydroxypropylcellulose) (HPC)) 126 and 131 % of control; under setting [7], 136 % of control [9 of 10 alive]. Also, the survivor count by setting is: (dose: 6.25 mg/kg/injection, schedule: Q01DX009 (ip), vehicle: Klucel (hydroxypropylcellulose) (HPC)) 10 of 10; under setting [6], 10 of 10; (dose: 200.0 mg/kg/injection, schedule: Q01DX009 (ip), vehicle: Klucel (hydroxypropylcellulose) (HPC)) 9 of 10; (dose: 400.0 mg/kg/injection, schedule: Q01DX009 (ip), vehicle: Klucel (hydroxypropylcellulose) (HPC)) 3 of 10 and 10 of 10.
In the case of `Cc1c2cc[n+](C)cc2c(C)c2c1[nH]c1ccc(O)cc12`, the T/C reads like this: (dose: 0.06 mg/kg/injection, schedule: Q01DX009 (ip), vehicle: water) 130 % of control; (dose: 0.25 mg/kg/injection, schedule: Q01DX009 (ip), vehicle: water, evaluated on day 45) 137 % of control; (dose: 0.25 mg/kg/injection, schedule: Q01DX009 (ip), vehicle: water, evaluated on day 60) 126 % of control; (dose: 0.5 mg/kg/injection, schedule: Q01DX009 (ip), vehicle: water, evaluated on day 45) 147 % of control; (dose: 0.5 mg/kg/injection, schedule: Q01DX009 (ip), vehicle: water, evaluated on day 60) 132 % of control [9 of 10 alive]; (dose: 1.0 mg/kg/injection, schedule: Q01DX009 (ip), vehicle: water) 145 % of control. The survivor count is, setting by setting: (dose: 2.0 mg/kg/injection, schedule: Q01DX009 (ip), vehicle: water) 10 of 10; (dose: 4.0 mg/kg/injection, schedule: Q01DX009 (ip), vehicle: water) 10 of 10; (dose: 5.0 mg/kg/injection, schedule: Q01DX009 (ip), vehicle: saline) 7 of 8.
As to `O=[n+]1c2ccccc2n([O-])c2ccccc21.[Cl][Ni][Cl]`, the survivor count under setting [4] is 7 of 10.
On to `CC(C)N1C(=O)N(Cl)C2C1N(Cl)C(=O)N2Cl` (configuration not stated), for which the survivor count runs as follows: under setting [8], 9 of 9; under setting [4], 4 of 10; under setting [9], 0 of 10; under setting [10], 0 of 10; under setting [1], 0 of 10.
Consider `C[C@]12CC[C@H](O)CC1=CC[C@@H]1[C@@H]2CC[C@]2(C)C(=O)CC[C@@H]12`, for which, under setting [1], the survivor count was 9 of 10.
As to `O=S(=O)(c1cccc(N=C=S)c1)c1cccc(N=C=S)c1`, the survivor count reads like this: under setting [6], 6 of 10; under setting [7], 4 of 10; (dose: 100.0 mg/kg/injection, schedule: Q01DX009 (ip), vehicle: Klucel (hydroxypropylcellulose) (HPC)) 1 of 10.
For `Oc1ccc(/C=N/N=C/c2ccc(O)c(O)c2)cc1O`, under setting [1], the survivor count is recorded as 8 of 10.
As for `C[n+]1c(-c2cccc3ccccc23)c2cc(N)ccc2c2ccccc21`, the T/C (dose: 3.13 mg/kg/injection, schedule: Q01DX009 (ip), vehicle: saline) was 126 and 130 % of control; the T/C (dose: 6.25 mg/kg/injection, schedule: Q01DX009 (ip), vehicle: saline) is 126 and 130 % of control; the T/C under setting [11] is 126 and 132 % of control [9 of 10 alive]. For the same molecule, the survivor count is, setting by setting: under setting [11], 9 of 10; (dose: 25.0 mg/kg/injection, schedule: Q01DX009 (ip), vehicle: saline) 2 of 10, 4 of 10, 10 of 10; (dose: 50.0 mg/kg/injection, schedule: Q01DX009 (ip), vehicle: saline) 3 of 10.
For the molecule `CC(C)CC(NC(=O)CNC(=O)CNC(=O)OCc1ccccc1)C(=O)O` (configuration not stated), under “dose: 12.0 mg/kg/injection, schedule: Q01DX009 (ip), vehicle: Klucel (hydroxypropylcellulose) (HPC)”, the T/C was 127 % of control.
`O=S(=O)(CCl)OCCCl`: the survivor count runs as follows: (dose: 6.25 mg/kg/injection, schedule: Q01DX009 (ip), vehicle: saline with Tween-80) 10 of 10; under setting [9], 1 of 10 and 10 of 10; under setting [10], 0 of 10, 3 of 10, 7 of 10. Moreover, the T/C under setting [4] is 127 % of control.
Turning to `O=CC(S)CO` (configuration not stated), the T/C (dose: 100.0 mg/kg/injection, schedule: Q01DX009 (ip), vehicle: saline) is 127 % of control. The survivor count reads like this: under setting [2], 9 of 10; under setting [3], 3 of 10.
`C[C@H](CCC[C@H](C)OS(=O)(=O)c1ccccc1)OS(=O)(=O)c1ccccc1`: the T/C under setting [8] was 129 % of control; the T/C (dose: 50.0 mg/kg/injection, schedule: Q01DX009 (ip), vehicle: saline with Tween-80, evaluated on day 45) is 97 % of control; the T/C (dose: 50.0 mg/kg/injection, schedule: Q01DX009 (ip), vehicle: saline with Tween-80, evaluated on day 60) was 97, 123 [9 of 10 alive], 138 % of control; the T/C (dose: 100.0 mg/kg/injection, schedule: Q01DX009 (ip), vehicle: saline with Tween-80, evaluated on day 45) was 118 % of control; the T/C under setting [5] was 100 [9 of 10 alive], 150, 158 % of control; the T/C under setting [10] is 133 and 184 % of control. Further, the survivor count is, setting by setting: under setting [10], 9 of 10 and 10 of 10; under setting [1], 4 of 10 and 9 of 10.
On to `S=C1CCCCN1`, for which the survivor count (dose: 400.0 mg/kg/injection, schedule: Q01DX009 (ip), vehicle: distilled water + alcohol) is 0 of 10.
